Test results as given in the supplement of paper PMC10849652.
The list shows a part of the results.

The chains behind the UniProt entries cited, without tags or fusion partners. Where a name states a change or a piece, a line headed by the entry shows the natural chain unless it says otherwise.
UniProt O14828: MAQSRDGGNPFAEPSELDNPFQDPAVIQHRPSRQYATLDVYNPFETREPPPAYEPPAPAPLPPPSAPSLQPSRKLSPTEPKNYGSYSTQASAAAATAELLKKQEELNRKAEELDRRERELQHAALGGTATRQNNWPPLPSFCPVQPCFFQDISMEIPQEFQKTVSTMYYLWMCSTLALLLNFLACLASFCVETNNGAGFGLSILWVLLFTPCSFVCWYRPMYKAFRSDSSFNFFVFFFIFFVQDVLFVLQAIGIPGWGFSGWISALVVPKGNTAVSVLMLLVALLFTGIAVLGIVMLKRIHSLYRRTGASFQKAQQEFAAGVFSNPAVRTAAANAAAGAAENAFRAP
UniProt Q9Y3A5: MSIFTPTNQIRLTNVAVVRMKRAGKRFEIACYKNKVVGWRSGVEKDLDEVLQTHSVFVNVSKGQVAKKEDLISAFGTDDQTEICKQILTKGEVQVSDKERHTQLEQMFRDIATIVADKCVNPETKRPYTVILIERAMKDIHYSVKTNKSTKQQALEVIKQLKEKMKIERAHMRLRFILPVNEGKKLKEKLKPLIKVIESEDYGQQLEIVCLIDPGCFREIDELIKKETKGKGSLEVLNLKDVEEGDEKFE
UniProt P55735: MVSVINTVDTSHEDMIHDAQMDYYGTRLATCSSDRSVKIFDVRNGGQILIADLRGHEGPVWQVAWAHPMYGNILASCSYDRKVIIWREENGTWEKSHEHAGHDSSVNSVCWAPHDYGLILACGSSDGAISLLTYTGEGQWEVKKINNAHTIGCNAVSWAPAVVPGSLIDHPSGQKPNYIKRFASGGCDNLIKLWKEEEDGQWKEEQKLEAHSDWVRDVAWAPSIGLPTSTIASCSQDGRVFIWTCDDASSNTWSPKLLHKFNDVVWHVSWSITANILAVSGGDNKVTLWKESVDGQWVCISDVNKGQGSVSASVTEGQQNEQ
UniProt Q9HB40: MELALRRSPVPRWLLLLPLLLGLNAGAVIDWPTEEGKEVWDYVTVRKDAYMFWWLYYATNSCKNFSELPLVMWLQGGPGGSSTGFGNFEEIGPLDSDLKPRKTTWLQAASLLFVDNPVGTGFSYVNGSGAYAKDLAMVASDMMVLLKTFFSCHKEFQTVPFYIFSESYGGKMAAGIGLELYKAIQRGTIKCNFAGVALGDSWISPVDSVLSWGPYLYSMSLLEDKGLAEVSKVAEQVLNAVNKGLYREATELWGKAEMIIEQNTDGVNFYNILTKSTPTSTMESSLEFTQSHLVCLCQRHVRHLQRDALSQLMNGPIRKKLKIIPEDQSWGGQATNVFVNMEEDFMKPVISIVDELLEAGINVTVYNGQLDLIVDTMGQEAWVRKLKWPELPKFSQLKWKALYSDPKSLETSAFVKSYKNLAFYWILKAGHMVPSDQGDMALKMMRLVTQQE
UniProt Q8WTV0: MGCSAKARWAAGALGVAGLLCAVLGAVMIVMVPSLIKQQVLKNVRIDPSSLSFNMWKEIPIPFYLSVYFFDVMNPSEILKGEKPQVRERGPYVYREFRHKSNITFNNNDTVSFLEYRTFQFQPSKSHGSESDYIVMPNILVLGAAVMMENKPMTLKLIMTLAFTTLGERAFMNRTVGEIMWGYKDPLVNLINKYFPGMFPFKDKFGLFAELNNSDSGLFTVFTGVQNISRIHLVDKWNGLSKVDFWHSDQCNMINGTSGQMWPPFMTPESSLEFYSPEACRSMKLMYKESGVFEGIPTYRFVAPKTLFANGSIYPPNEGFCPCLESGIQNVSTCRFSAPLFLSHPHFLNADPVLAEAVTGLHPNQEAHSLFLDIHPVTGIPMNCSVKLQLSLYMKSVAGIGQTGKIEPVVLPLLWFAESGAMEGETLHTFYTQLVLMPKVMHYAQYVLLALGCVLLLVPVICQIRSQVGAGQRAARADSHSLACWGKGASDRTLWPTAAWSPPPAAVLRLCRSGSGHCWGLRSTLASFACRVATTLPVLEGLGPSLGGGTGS
UniProt Q9H0E3: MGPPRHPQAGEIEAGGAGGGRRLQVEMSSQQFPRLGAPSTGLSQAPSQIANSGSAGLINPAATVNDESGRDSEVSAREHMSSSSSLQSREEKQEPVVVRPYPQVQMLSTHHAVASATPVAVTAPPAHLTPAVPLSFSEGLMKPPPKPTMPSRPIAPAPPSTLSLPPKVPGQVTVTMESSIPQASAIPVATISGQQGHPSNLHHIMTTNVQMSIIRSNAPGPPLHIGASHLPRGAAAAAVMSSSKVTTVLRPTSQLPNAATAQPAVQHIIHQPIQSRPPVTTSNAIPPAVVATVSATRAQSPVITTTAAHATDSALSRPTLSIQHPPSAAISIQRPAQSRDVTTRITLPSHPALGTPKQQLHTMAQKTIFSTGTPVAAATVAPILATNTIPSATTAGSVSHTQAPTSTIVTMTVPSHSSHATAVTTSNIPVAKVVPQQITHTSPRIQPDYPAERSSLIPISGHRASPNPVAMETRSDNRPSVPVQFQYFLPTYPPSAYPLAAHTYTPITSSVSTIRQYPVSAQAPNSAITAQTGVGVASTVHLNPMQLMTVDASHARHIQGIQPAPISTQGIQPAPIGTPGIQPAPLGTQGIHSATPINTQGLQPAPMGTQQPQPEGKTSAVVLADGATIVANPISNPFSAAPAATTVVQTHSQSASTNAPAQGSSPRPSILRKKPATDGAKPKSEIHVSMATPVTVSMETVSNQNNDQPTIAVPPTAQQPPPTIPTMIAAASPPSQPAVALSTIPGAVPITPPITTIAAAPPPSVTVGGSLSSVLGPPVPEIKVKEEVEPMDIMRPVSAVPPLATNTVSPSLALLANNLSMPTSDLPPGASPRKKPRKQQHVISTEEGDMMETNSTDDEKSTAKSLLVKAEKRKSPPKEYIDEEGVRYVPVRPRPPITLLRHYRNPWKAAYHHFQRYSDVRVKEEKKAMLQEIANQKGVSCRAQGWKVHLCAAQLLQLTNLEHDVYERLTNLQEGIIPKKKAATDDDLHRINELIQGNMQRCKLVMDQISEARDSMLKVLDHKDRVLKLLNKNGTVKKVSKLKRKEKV
UniProt Q96EE3: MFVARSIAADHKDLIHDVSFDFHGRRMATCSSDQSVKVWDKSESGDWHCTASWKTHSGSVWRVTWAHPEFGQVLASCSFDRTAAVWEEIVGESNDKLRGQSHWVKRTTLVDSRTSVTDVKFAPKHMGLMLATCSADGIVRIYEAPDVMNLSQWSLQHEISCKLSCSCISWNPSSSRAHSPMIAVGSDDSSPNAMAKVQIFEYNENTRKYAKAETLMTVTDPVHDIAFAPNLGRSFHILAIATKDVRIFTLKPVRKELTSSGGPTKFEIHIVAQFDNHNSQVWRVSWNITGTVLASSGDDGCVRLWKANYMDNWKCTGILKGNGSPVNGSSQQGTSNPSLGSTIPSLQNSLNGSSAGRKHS
UniProt O14521: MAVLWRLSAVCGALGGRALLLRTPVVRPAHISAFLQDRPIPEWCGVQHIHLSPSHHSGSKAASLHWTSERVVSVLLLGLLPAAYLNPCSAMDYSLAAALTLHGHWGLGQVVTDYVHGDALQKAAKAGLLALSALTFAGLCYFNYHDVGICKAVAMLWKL
UniProt Q6UVJ0: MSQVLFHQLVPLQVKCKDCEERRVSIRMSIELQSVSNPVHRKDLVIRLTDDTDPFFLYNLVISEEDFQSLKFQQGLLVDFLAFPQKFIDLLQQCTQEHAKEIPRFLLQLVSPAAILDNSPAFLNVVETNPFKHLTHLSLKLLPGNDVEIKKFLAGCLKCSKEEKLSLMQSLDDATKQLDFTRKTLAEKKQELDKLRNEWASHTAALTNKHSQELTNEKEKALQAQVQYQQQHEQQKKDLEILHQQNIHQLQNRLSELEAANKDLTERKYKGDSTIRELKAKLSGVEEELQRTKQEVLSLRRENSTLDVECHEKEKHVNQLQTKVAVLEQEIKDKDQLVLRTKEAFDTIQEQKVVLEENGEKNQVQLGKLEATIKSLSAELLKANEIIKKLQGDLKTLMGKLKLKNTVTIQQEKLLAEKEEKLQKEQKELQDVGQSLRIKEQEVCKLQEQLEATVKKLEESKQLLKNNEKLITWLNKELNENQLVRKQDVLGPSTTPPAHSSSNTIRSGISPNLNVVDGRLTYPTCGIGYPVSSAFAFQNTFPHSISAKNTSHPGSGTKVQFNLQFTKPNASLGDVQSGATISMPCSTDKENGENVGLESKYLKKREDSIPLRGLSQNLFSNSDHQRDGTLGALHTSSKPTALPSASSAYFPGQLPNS
UniProt Q8NBX0: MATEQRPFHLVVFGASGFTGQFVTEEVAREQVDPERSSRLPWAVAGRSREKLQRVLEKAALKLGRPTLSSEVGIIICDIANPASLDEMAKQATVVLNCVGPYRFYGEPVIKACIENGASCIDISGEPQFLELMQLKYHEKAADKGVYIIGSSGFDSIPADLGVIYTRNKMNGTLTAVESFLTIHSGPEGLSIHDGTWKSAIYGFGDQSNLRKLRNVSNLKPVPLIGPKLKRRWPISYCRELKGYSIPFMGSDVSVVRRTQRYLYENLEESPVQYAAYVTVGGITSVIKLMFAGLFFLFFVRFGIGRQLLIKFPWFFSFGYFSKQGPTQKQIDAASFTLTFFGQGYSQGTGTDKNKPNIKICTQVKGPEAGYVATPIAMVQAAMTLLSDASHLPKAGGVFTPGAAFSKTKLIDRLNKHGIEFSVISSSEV
UniProt O75326: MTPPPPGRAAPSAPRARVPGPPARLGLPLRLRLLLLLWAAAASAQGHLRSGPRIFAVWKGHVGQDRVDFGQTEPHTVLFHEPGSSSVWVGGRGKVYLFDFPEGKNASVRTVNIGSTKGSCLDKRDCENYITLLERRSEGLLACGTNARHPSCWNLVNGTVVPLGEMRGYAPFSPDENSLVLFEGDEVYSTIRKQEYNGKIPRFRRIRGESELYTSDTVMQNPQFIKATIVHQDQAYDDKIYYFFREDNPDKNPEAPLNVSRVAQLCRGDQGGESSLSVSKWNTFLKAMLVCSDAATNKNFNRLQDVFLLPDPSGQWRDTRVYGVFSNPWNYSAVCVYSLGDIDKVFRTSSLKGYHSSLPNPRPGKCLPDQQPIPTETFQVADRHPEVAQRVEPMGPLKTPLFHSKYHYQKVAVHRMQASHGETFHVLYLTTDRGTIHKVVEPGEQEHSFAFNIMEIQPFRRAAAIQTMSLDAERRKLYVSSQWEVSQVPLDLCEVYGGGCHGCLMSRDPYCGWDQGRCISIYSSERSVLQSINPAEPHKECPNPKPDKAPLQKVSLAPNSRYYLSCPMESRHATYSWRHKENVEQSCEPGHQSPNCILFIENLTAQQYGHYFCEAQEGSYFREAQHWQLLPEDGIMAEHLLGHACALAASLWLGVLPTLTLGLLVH
UniProt O94885: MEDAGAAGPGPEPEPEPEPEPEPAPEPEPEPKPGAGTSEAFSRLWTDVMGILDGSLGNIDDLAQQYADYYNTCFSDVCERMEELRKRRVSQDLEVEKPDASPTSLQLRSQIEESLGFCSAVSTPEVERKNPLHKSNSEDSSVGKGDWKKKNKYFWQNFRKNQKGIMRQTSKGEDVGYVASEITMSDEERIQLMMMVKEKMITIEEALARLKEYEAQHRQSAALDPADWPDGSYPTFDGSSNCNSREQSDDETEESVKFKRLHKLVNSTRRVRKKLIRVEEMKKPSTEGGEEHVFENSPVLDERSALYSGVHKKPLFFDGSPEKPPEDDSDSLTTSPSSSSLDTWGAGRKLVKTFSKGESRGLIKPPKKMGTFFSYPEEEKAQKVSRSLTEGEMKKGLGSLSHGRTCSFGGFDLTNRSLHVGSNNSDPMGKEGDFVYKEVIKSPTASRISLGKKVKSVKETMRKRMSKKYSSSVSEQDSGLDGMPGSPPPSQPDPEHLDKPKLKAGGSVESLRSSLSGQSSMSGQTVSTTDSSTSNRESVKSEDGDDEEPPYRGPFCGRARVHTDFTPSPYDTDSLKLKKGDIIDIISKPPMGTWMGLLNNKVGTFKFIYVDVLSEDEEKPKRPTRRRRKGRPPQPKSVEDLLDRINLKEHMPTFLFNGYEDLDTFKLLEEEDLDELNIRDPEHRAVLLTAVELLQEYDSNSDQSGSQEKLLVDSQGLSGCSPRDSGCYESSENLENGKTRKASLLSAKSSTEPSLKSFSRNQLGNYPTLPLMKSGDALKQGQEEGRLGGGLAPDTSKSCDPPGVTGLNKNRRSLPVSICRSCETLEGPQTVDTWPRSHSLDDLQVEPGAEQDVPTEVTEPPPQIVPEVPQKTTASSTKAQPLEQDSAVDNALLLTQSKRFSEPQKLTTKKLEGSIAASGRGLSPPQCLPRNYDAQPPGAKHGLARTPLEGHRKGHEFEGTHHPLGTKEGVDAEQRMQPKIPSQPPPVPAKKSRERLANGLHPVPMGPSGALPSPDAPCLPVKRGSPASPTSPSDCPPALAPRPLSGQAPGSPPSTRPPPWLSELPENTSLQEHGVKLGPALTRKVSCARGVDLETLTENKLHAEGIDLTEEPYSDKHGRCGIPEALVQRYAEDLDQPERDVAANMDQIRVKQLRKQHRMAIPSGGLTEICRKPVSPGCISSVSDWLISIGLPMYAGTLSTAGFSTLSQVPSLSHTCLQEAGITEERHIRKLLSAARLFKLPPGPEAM

Key:
Assay in all cases: log2 fold change, soluble protein after heating vs DMSO (PISA); higher = thermal stabilisation; K562 lysate, 10 uM; active = over 0.2 and 3.5 SD of the protein, either way, in both replicates (recomputed)
[1] = compound: NCC(=O)Nc1ccc(-n2nc(C(F)(F)F)cc2-c2ccc3c(ccc4ccccc43)c2)cc1
Summary of the method: (§1)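 Following dounce homogenisation of K562 pellets in PBS pH 7.4 with 1 mM MgCl2, crude extract at 1 mg/mL protein was incubated for 30 min with 10 μM compound. Aliquots were then heated for 3 min over 48°C-58°C and pooled, NP-40 was added to 0.5% at 4°C, and soluble protein was recovered as the supernatant at 21,000xg for 90 min. Channel-sum-equalised TMTpro 16plex LC-MS/MS quantified this protein. Each value, from duplicates, is a log-two fold change in thermal stability relative to solvent controls.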

vorinostat = compound: O=C(CCCCCCC(=O)Nc1ccccc1)NO [vorinostat]
Summary of the method: as §1

silmitasertib = compound: O=C(O)c1ccc2c(c1)nc(Nc1cccc(Cl)c1)c1ccncc12 [silmitasertib]
Summary of the method: as §1

[2] = compound: O=C1NC(=O)C(c2cnc3ccccn23)=C1c1cn2c3c(cc(F)cc13)CN(C(=O)N1CCCCC1)CC2
Summary of the method: as §1

entospletinib = compound: c1cn2cc(-c3ccc4cn[nH]c4c3)nc(Nc3ccc(N4CCOCC4)cc3)c2n1 [entospletinib]
Summary of the method: as §1

Measured: log2 fold change

SAFB2 (UniProt Q14151)
inactive: [1] 0.016 | vorinostat -0.184 | silmitasertib -0.013 | [2] -0.021 | entospletinib -0.015

SCAMP3 (UniProt O14828)
inactive: [1] -0.008 | vorinostat 0.137 | silmitasertib -0.024 | [2] 0 | entospletinib 0.008

SBDS (UniProt Q9Y3A5)
inactive: [1] -0.011 | vorinostat 0.11 | silmitasertib -0.047 | [2] 0.007 | entospletinib 0.004

SEC13 isoform 3 (UniProt P55735)
inactive: [1] -0.01 | vorinostat -0.115 | silmitasertib 0.021 | [2] -0.045 | entospletinib -0.001

SAFB isoform 3 (UniProt Q15424)
inactive: [1] 0.036 | vorinostat 0 | silmitasertib 0.006 | [2] -0.006 | entospletinib 0

SCPEP1 (UniProt Q9HB40)
inactive: [1] -0.006 | vorinostat -0.082 | silmitasertib 0.05 | [2] 0.039 | entospletinib -0.069

SCARB1 isoform 2 (UniProt Q8WTV0)
inactive: [1] 0.005 | vorinostat 0.114 | silmitasertib 0.003 | [2] -0.018 | entospletinib 0.005

SAP130 isoform 3 (UniProt Q9H0E3)
inactive: [1] 0.073 | vorinostat -0.139 | silmitasertib -0.097 | [2] 0.035 | entospletinib -0.123

Two records picked at random from those above:
SAFB2 (UniProt Q14151)
inactive: [1] 0.016 | vorinostat -0.184 | silmitasertib -0.013 | [2] -0.021 | entospletinib -0.015

SBDS (UniProt Q9Y3A5)
inactive: [1] -0.011 | vorinostat 0.11 | silmitasertib -0.047 | [2] 0.007 | entospletinib 0.004

(listing goes on)

SEC23IP (UniProt Q9Y6Y8)
inactive: [1] 0.008 | vorinostat -0.063 | silmitasertib -0.003 | [2] -0.031 | entospletinib -0.012

SEH1L isoform 1 (UniProt Q96EE3)
inactive: [1] 0.056 | vorinostat -0.001 | silmitasertib -0.02 | [2] -0.008 | entospletinib -0.011

SDHD (UniProt O14521)
inactive: [1] -0.118 | vorinostat -0.159 | silmitasertib 0.033 | [2] 0.101 | entospletinib 0.094

SASS6 (UniProt Q6UVJ0)
active: vorinostat -0.381
inactive: [1] 0.015 | silmitasertib 0.012 | [2] 0.021 | entospletinib 0.003

SCCPDH (UniProt Q8NBX0)
inactive: [1] -0.129 | vorinostat 0.34 | silmitasertib -0.19 | [2] 0.115 | entospletinib 0.087

SEMA7A (UniProt O75326)
inactive: [1] 0.257 | vorinostat 0.116 | silmitasertib -0.003 | [2] -0.028 | entospletinib -0.024

SDCCAG8 (UniProt S4R323)
inactive: vorinostat -0.181 | silmitasertib 0.037 | [2] 0.035

SASH1 (UniProt O94885)
inactive: vorinostat 0.144 | silmitasertib -0.014 | [2] 0.091 | entospletinib 0.087
